Laboratory results taken from patent publication EP2322194A2 (Reprise Biopharmaceutics, LLC, priority 2003, dated 2005).
Where two headings read alike, the source gives them in different places. This continues a long series; more values of the same kind are listed elsewhere.

System: over-hydrated, healthy, non-smoking male and female volunteers
Type: in vivo, human
Conditions: 0.5 ng/kg, individual subjects
Description: Briefly, an open-label, crossover study with 8 healthy, over-hydrated, non-smoking male and female volunteers, age 18-40. The subjects were dosed initially with 0.5 ng/kg dose, then with the 1.0 ng/kg dose and finally the 2.0 ng/kg dose. Pharmacodynamic and pharmacokinetic parameters were evaluated at each dose level. A washout period of two days (48 hours) was observed between dosing. Eight subjects evaluated in this study, 5 males, and 3 females. […] Each subject remained in the clinic from one day prior to first dosing to one day after last dosing for a total of 7 days. […] At this point over-hydration was discontinued. […] Urine-specific gravity was also measured. […] This same procedure was followed for the 1.0 ng/kg and 2.0 ng/kg infusions. […] Criteria for evaluation in the study included urine output over time, urine osmolality over time, urine-specific gravity over time, and […] osmolality and sodium over time. Statistical analysis on the above criteria was performed. The statistical analysis is descriptive and all statistical hypothesis testing was done for exploratory purposes. […] The second and third estimation used 200 mOsm/kg and 400 mOsm/kg as cut off levels for 'onset' and 'end' of action, respectively. […] The overall duration of action was estimated for each dose group using the nonparametric Kaplan-Meier method. […] Furthermore, the duration of action was presented for each treatment group using the mean, SD, median, minimum and maximum values. The dose-response relationship between duration of action and dose was investigated using an appropriate linear or nonlinear model.

Substance: 1-desamino-8-D-arginine vasopressin [desmopressin]
- Urine Osmolality (time 20 min): 56 mOsm/kg
- Urine Osmolality (time 40 min): 72 mOsm/kg
- Urine Osmolality (time 60 min): 86 mOsm/kg
- Urine Osmolality (time 80 min): 95 mOsm/kg
- Urine Osmolality (time 100 min): 108 mOsm/kg
- Urine Osmolality (time 120 min): 119 mOsm/kg
- Urine Osmolality (time 140 min): 87 mOsm/kg
